Screen size: about 290,000 compounds; fewer than 10 were called active. These results got no clear call from the source, so the numbers are uncertain. Calls come from the whole dose curve; as a rule, active = well fitted curve in the direction sought with a large enough effect in the polarisation (not every such curve was filed as active); inconclusive = small, poorly fitted or top-dose-only effect, or effect the other way, or a change in a side signal; inactive = no such curve, though single readings can be large or run the other way; the % refers to the polarisation. Some of these compounds have results that are not shown, active ones among them.
Test: qHTS Assay for Inhibitors Targeting the Menin-MLL Interaction in MLL Related Leukemias: Competition With Fluorescein Labeled MLL-derived Peptide
Settings: Fluorescence polarization, fluorescein-MLL peptide displacement from menin

Row | Compound | Potency
1 | COc1ccc(Br)c(C(=O)NCC2(N3CCCCC3)CCCCC2)c1 | inconclusive: 28.2 µM

— PubChem BioAssay AID1766 (National Center for Advancing Translational Sciences (NCATS), 2009)
